# Assay results: PubChem BioAssay AID485353 (National Center for Advancing Translational Sciences (NCATS), 2010)
# In all, about 330,000 compounds went through this assay and about 610 (0.18%) were called active. The inconclusive results got no clear call from the source; some entries with a clear call stand among them for comparison. The call rests on the fitted dose curve. Where the call is inconclusive, the potency comes from a doubtful curve fit.
# Assay: qHTS of Yeast-based Assay for SARS-CoV PLP; further: nearly all actives have a fitted effect of over 55% in size; on activity, positive = growth rescue: 0% is about no effect
# Conditions: S. cerevisiae expressing SARS-CoV PLpro; Potency: growth rescue; activity, positive = growth rescue: at 32.9 µM (top of the series)
# Potency means the concentration at half of the fitted maximal effect.
SMILES,Potency,"activity, positive = growth rescue"
O=c1cnnc(N/N=C/c2ccccn2)[nH]1,"inconclusive: 2.24 µM [activator, full curve]",
C=CCc1cccc(/C=N/NC(=O)C[n+]2ccccc2)c1O,,inactive: 5.25%
COc1ccc(C(=O)CSc2nnc(CC(=O)Nc3ccccc3OC)n2C)cc1,,inactive: 0.904%
Cc1cc(Br)cc(C)c1NC(=S)NC(=O)CC(C)C,"inconclusive: 2 µM [activator, full curve]",
CN(C)/C=C/C(=O)c1ccc(OCCN(C)c2ccccn2)cc1,,inactive: -5.24%
Cc1cccc(C(=O)NNC2=C(C(=O)C(F)(F)F)CCC2)c1O,,inactive: -20.3%
Nc1nonc1-n1nnc(C(=O)N/N=C/c2ccccc2Cl)c1CN1CCOCC1,"inconclusive: 15.8 µM [activator, single point]",
CC(OC(=O)CN1C(=O)c2ccccc2C1=O)C(=O)NCc1ccccc1 (stereo unspecified),"inconclusive: 3.98 µM [activator, single point]",
COc1ccc(Cl)cc1S(=O)(=O)N1CCN=C1Cc1ccccc1,"inconclusive: 4.47 µM [activator, single point]",
CCCNC(=O)c1cc(-c2ccc(Br)cc2)on1,"inconclusive: 4.47 µM [activator, single point]",
O=C(CS(=O)(=O)c1ccccc1)NCc1ccccc1,"inconclusive: 1 µM [activator, partial curve]",
C=CCn1cnc2c(c1=O)c1nc3ccccc3nc1n2/N=C/c1ccccn1,"inconclusive: 20 µM [activator, single point]",
CC(C)(C)c1ccc(-n2ncc3c2CCCC3NC(=O)CCN2CCCC2=O)cc1 (stereo unspecified),"inconclusive: 20 µM [activator, single point]",
COc1ccc(CC(=O)N(C)CC(=O)Nc2cccc(F)c2)cc1S(=O)(=O)N1CCOCC1,,inactive: -5.35%
COc1cc(C(=O)Nc2nnc(SCC(=O)NCC3CCCO3)s2)cc(OC)c1OC (stereo unspecified),active: 4.47 µM,
COc1ccc(N(CC(=O)Nc2ccc3c(c2)OCO3)S(=O)(=O)c2c(C)nn(C)c2C)cc1,"inconclusive: 4.47 µM [activator, single point]",
CC(c1nc2ccccc2c(=O)[nH]1)N1CCN(C)CC1 (stereo unspecified),"inconclusive: 20 µM [activator, single point]",
Nc1nc(Cl)nc(N(c2ccccc2)c2ccccc2)n1,,inactive: 12.9%
CCOC(=O)c1ccccc1NC(=O)CN(c1ccccc1OCC)S(C)(=O)=O,"inconclusive: 20 µM [activator, single point]",
COc1cccc(/C=N/NC(=O)C(=O)N/N=C/c2cccc(OC)c2O)c1O,"inconclusive: 0.316 µM [activator, full curve, poor fit]",
CCCN1CCN(CCCNC(=O)CCN2C(=O)COc3ccccc32)CC1,"inconclusive: 3.98 µM [activator, full curve]",
CC(C)CCNC(=S)Nc1ccccn1,"inconclusive: 4.47 µM [activator, single point]",
Cc1ccc(NC(=O)C2CCCN2C(=O)OCc2ccccc2)cc1C (stereo unspecified),"inconclusive: 3.55 µM [activator, single point]",
CC1=C(C(=O)N2CCCCC2)C2(CCC(C)CC2)OC1=O (stereo unspecified),,inactive: 10.9%

# Entries from the list above containing a Cl atom:
SMILES,Potency,"activity, positive = growth rescue"
Nc1nonc1-n1nnc(C(=O)N/N=C/c2ccccc2Cl)c1CN1CCOCC1,"inconclusive: 15.8 µM [activator, single point]",
COc1ccc(Cl)cc1S(=O)(=O)N1CCN=C1Cc1ccccc1,"inconclusive: 4.47 µM [activator, single point]",
Nc1nc(Cl)nc(N(c2ccccc2)c2ccccc2)n1,,inactive: 12.9%

# Some of these compounds in order of number of heavy atoms, smallest number first:
SMILES,Potency,"activity, positive = growth rescue"
C=CCc1cccc(/C=N/NC(=O)C[n+]2ccccc2)c1O,,inactive: 5.25%
Cc1cccc(C(=O)NNC2=C(C(=O)C(F)(F)F)CCC2)c1O,,inactive: -20.3%
Nc1nonc1-n1nnc(C(=O)N/N=C/c2ccccc2Cl)c1CN1CCOCC1,"inconclusive: 15.8 µM [activator, single point]",

# Following part

SMILES,Potency,"activity, positive = growth rescue"
Cc1cc(=O)oc2c3c(cc(OCC(=O)Nc4cccnc4)c12)OC(C)(C)CC3,,inactive: -4.05%
COc1ccc(CNC(=O)c2c(F)c(F)c(F)c(F)c2F)cc1,"inconclusive: 3.16 µM [activator, full curve, poor fit]",
CC1CC(C)CN(CCCNC(=O)COc2cc(=O)n(C)c3ccccc23)C1 (stereo unspecified),,inactive: -15.1%
C=CCNC(=S)Nc1ccc(Br)cc1F,"inconclusive: 10 µM [activator, single point]",
CCOC(=O)N1CCN(C(=O)c2oc3ccc(S(=O)(=O)N4CCCCCC4)cc3c2C)CC1,,inactive: -0.207%
Cc1ccc(CN2CC(C(=O)Nc3ccncc3)CC2=O)cc1 (stereo unspecified),"inconclusive: 20 µM [activator, single point]",
Cc1nc2cc(C(=O)N3CCC4(CC3)OCCO4)ccc2n1-c1cccc(F)c1,"inconclusive: 12.6 µM [activator, partial curve]",
CCOC(=O)N1CCC(NC(=O)c2cc(S(=O)(=O)NCCc3ccccc3)ccc2F)CC1,"inconclusive: 5.62 µM [activator, partial curve]",
CC(=O)c1ccc(NC(=S)N2CC(C)CC(C)C2)cc1 (stereo unspecified),"inconclusive: 22.4 µM [activator, partial curve, poor fit]",
CC(C)COc1cccc(C(=O)NC(=S)NCc2cccnc2)c1,"inconclusive: 20 µM [activator, partial curve]",
Clc1cccc(CNCC2CCCO2)c1Cl (stereo unspecified),"inconclusive: 11.2 µM [activator, partial curve]",
O=C(Nc1ccccc1)OCc1ccccn1,"inconclusive: 20 µM [activator, single point]",
CCOc1ccc(S(=O)(=O)NC(C)(C)C)cc1-c1nc2c(C(C)(C)C)nn(C)c2c(=O)[nH]1,"inconclusive: 2.82 µM [activator, single point]",
CCCCn1c(=S)[nH]c2ccccc2c1=O,"inconclusive: 8.91 µM [activator, partial curve]",
CC(C)N(Cc1ccccc1)C(=O)C1CCCN(c2ncnc3c2nc2n3CCCCC2)C1 (stereo unspecified),,inactive: -2.72%
Brc1ccccc1Cn1c(-c2cscn2)nc2ccccc21,"inconclusive: 4.47 µM [activator, single point]",
Cn1nnnc1SCC(=O)NCc1ccco1,"inconclusive: 3.55 µM [activator, single point]",
CC(=O)Nc1ccc(NC(=O)Cn2c(-c3ccc(F)cc3)cnc2SCC(=O)Nc2c(C)cccc2C)cc1,"inconclusive: 3.98 µM [activator, single point]",
Cc1ccc(NS(=O)(=O)c2ccc(-n3cccn3)cc2)cc1F,"inconclusive: 0.355 µM [activator, partial curve, poor fit]",
CCCCNc1ccc(C(=O)O)cc1,,inactive: 0.807%
O=C(CCCc1ccccc1)Nc1nncs1,"inconclusive: 7.08 µM [activator, partial curve, poor fit]",
CN(C)S(=O)(=O)c1ccc(C(=O)N2CCN=C2SCc2cccnc2)cc1,active: 20 µM,
CCNC(=S)N/N=C/c1c(Cl)cccc1Cl,"inconclusive: 7.94 µM [activator, partial curve]",
Cc1ccc(C)c(N2CCN(C(=O)C3CCCN(S(=O)(=O)c4c(C)[nH]c(=O)[nH]c4=O)C3)CC2)c1 (stereo unspecified),active: 10 µM,

SMILES,Potency,"activity, positive = growth rescue"
CC(=O)N1N=C(c2ccc(Cl)cc2)CC1c1ccco1 (stereo unspecified),,inactive: -0.706%
COc1ccccc1/C=N/OCC(=O)NCc1ccc2c(c1)OCO2,"inconclusive: 20 µM [activator, single point]",
O=C(NNC(=O)c1cc(Cl)ccc1O)c1cccc(S(=O)(=O)N2CCOCC2)c1,"inconclusive: 20 µM [activator, single point]",
CCCN(CCC)S(=O)(=O)c1ccc(C(=O)Nc2nnc(-c3cccc(OC)c3)o2)cc1,"inconclusive: 2.82 µM [activator, partial curve]",
Cc1ccc(NC(=O)CCNS(=O)(=O)c2ccc3c(c2)CCC(=O)N3)cc1C,"inconclusive: 20 µM [activator, single point]",
CCc1nnc(NC(=O)CSc2nccn2-c2cccc(C)c2)s1,active: 12.6 µM,
O=C1/C(=C/c2cccs2)N=C(c2cccs2)N1Nc1ccccc1,"inconclusive: 3.98 µM [activator, single point]",
CCc1ccc(OCC(=O)Nc2ccc(S(=O)(=O)N3CCCC3)cc2)c(Br)c1,,inactive: 3.78%
CC(=O)N/C(=C\c1cccc([N+](=O)[O-])c1)C(=O)NC1CCCCC1,"inconclusive: 20 µM [activator, single point]",
CCN1CNC(=S)N(c2ccccc2OC)C1,"inconclusive: 0.355 µM [activator, partial curve, poor fit]",
O=C(O)CC/C(=N/NC(=O)c1ccc(-c2ccccc2)cc1)c1ccccc1,"inconclusive: 20 µM [activator, single point]",
Cc1cccc(C)c1NC(=O)Cn1c(=O)c(N2CCCCC2)c(N)n(C)c1=O,active: 11.2 µM,
CCN(CC)C(=O)c1ccc(NC(=O)c2cccc(S(=O)(=O)N3CCN(C)CC3)c2)cc1,,inactive: 3.03%
Cc1c(NC(=O)Nc2cccc(Cl)c2)c(=O)n(-c2ccccc2)n1C,"inconclusive: 3.98 µM [activator, single point]",
COc1ccc2nc(NC(=O)C3CCN(C(=O)c4ccc(F)cc4)CC3)sc2c1,"inconclusive: 0.398 µM [activator, partial curve, poor fit]",
COc1nc(Nc2ccc(C(C)C)cc2)nc(OC)n1,"inconclusive: 20 µM [activator, single point]",
CC(=O)N1CCc2ccc(S(=O)(=O)Nc3ccccc3Cl)cc21,,inactive: 1.23%
CN1CCN(CCOc2ccc(-c3ccccc3)cc2)CC1,"inconclusive: 22.4 µM [activator, single point]",
CCOc1ccc(C(C(=O)NC2CCCCC2)N(C(=O)Cc2cccs2)c2ccc(-n3cnnn3)c(OC)c2)cc1 (stereo unspecified),"inconclusive: 5.01 µM [activator, partial curve]",
CCC1(CC)C(=O)N(C)C(=O)NC1=Nc1ccc(OC)cc1,active: 1.78 µM,
O=C(Nc1cccnc1)c1cc(-c2cccnc2)nc2ccc(Br)cc12,,inactive: -1.84%
O=C(N/N=C/c1c(O)n(-c2ccc(Cl)cn2)c(=O)c2ccccc12)c1ccncc1,active: 12.6 µM,
O=C(c1ccc2c(c1)N(Cc1ccc(F)cc1)CCS2)N1CCOCC1,,inactive: -0.43%
